# Assay results as given in patent US20260274933A1 (Innovent, published 2026).
# Protein sequences, listed by entry. Tags and fused reporters are not part of them. Lines headed by an entry give the natural chain unless they say otherwise; changes in a name come on top. Chains listed by the source or under a name are the forms on record and can include a tag or linker. Residues count along the entry.
# biotin-labeled VEGF A165 (ACRO, Catalog No. VE5-H8210) (P15692, form named): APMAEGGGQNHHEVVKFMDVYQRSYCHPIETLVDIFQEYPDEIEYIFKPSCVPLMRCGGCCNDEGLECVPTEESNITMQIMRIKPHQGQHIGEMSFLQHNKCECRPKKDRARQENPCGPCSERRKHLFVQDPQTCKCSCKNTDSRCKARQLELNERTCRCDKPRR
# UniProt O15123: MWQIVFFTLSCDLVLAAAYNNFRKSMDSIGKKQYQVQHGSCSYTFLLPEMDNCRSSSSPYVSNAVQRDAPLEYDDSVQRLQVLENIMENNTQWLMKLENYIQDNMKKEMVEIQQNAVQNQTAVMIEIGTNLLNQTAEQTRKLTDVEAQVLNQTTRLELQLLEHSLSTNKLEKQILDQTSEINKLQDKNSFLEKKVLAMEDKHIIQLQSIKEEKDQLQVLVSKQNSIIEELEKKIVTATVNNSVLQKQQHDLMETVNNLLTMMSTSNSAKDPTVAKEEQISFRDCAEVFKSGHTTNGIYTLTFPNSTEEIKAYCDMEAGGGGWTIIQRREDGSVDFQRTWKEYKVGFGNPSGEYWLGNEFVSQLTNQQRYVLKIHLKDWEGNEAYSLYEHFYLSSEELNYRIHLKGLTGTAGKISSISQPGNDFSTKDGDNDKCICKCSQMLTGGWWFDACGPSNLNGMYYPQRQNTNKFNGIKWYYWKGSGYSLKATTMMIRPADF
# hAng2-Fc (Beijing Sino Biological, Catalog No. 10691-H02H): residues 19-496 of O15123
# hAng2-biotin (R&D, Catalog No. BT623B/CF): residues 68-496 of O15123
# These are yes or no findings as the source states them, for the method shown. Some binding calls cover weakened binding; strength is not graded here.
# Tests used:
# [1] = biological target: biotin-labeled VEGF A165 (ACRO, Catalog No. VE5-H8210) (human) (UniProt P15692); test: condition: log about 2.2 (ug/ml), i.e. about 150 ug/ml; blocking ELISA: biotin VEGF A165 on streptavidin, binding of VEGFR-Fc
# [2] = biological target: hAng2-biotin (R&D, Catalog No. BT623B/CF) (human) (UniProt O15123); test: condition: log about 0.7 (ug/ml), i.e. about 5 ug/ml; blocking ELISA: Tie2-Fc coated, binding of hAng2-biotin
# [3] = biological target: hAng2-Fc (Beijing Sino Biological, Catalog No. 10691-H02H) (human) (UniProt O15123); test: flow cytometry blocking: binding of hAng2-Fc to Tie2 on 293-Tie2 cells
# [4] = biological target: hAng2-biotin (R&D, Catalog No. BT623B/CF) (human) (UniProt O15123); test: blocking ELISA: hTie2 coated, binding of biotinylated hAng2
# [5] = biological target: hAng2-biotin (R&D, Catalog No. BT623B/CF) (human) (UniProt O15123); test: blocking ELISA: Tie2-Fc coated, binding of hAng2-biotin blocked
binding [1],binding [2],binding [5],Binder,binding [3],binding [4]
no binding,no binding,,"IgG (antibody, V domains shown, also called Negative control IgG) VH: EVRLLESGGGLVQPGGSLRLSCAASGFTFSNYAMGWVRQAPGKGLEWVSAISGSGGSTYYADSVKGRFTTSRDDSKNALYLQMNSLRAEDTAVYYCARGGPGWYAADVWGQGTTVTVSS VL: DIQMTQSPSSLSASVGDRVTITCRASQSISSYLNWYQQKPGKAPKLLIYAASSLQSGVPSRFSGSGSGTDFTLTISSLQPEDFATYYCQQADLPAFAFGGGTKVEIKR","no binding (tested: log about 2.6 (nM), i.e. about 400 nM)","no binding (tested: log about 2.5 (nM), i.e. about 300 nM)"
,,binds,"LA24C11.10 (Ang2 VHH) (VHH, Humanized anti-Ang2 VHH; also called hz24C11.10; LA24C11.0) VHH: EVQLLESGGGLVQPGGSLRLSCAASGFALDYYAIGWFRQAPGKGLEGVSCISSGEGSTYYADSVKGRFTISRDNSKNTVYLQMNSLRAEDTAVYYCATDSRGDDVACEGLRRNEYDYWGQGTLVTVSS",,
